Results: PubChem BioAssay AID248 (DTP/NCI, 2004)
The list shows only some results of the screen, not a fair sample: it is rich in T/C values a quarter to a half above the control, in often repeated tests (any T/C) and in doses without a T/C. Other doses and runs of a compound stand elsewhere. T/C: endpoint of the treated group in % of that of the vehicle group. Some doses have a count of surviving animals in place of a T/C: the source holds a T/C of zero for them, seemingly a mark for toxic or unscored doses. Some doses without a T/C left all or most animals alive at the check, yet need not have been tolerated: the source hardly ever lists a survival T/C far under the control, and the zero likely stands for such cases as well. Counts of survivors are from the toxicity check (mostly the fifth day) where no day follows; animals may have died later. Schedules are NCI's codes, read here as Q, the interval in days (D) or hours (H), X, the number of doses. Some entries were tested several times; the results are listed from low to high. Where survival is the endpoint, the PubChem record calls one and a half times the control and up active, and a quarter to a half above the control has no call in these data; cut-offs in other NCI protocols can differ. Some T/C values carry the count of animals alive at the toxicity check (mostly the fifth day); where none is given, no animal had died by that day.

System: L1210 leukemia ip in BDF1 mice, survival T/C
Assay: NCI In Vivo Anticancer Drug Screen. Data for tumor model L1210 Leukemia (intraperitoneal) in B6D2F1 (BDF1) mice
Conditions: T/C endpoint: mean survival time, higher T/C = longer survival
[1] = dose: 400.0 mg/kg/injection, schedule: Q01DX009 (ip), vehicle: saline with Tween-80
[2] = dose: 100.0 mg/kg/injection, schedule: Q01DX009 (ip), vehicle: saline
[3] = dose: 200.0 mg/kg/injection, schedule: Q01DX009 (ip), vehicle: saline
[4] = dose: 200.0 mg/kg/injection, schedule: Q01DX009 (ip), vehicle: saline with Tween-80

**Q.** For `CC[C@@]1(O)C(=O)OCc2c1cc1n(c2=O)Cc2cc3c(OC)cccc3nc2-1`, which T/C (dose: 1.0 mg/kg/injection, schedule: Q04DX003 (ip), vehicle: saline with Tween-80) is on record?
**A.** The T/C was 134 % of control.

**Q.** What about the T/C (dose: 2.0 mg/kg/injection, schedule: Q01DX009 (ip), vehicle: carboxymethylcellulose (CMC)) of the same molecule?
**A.** Its T/C is 129 % of control [5 of 6 alive].

**Q.** And the T/C (dose: 2.0 mg/kg/injection, schedule: Q01DX009 (ip), vehicle: saline with Tween-80)?
**A.** The T/C was 136 % of control.

**Q.** And the T/C (dose: 2.0 mg/kg/injection, schedule: Q04DX003 (ip), vehicle: saline with Tween-80)?
**A.** The T/C was 139 % of control.

**Q.** With `CC(CCc1cccc2ccccc12)(C(=O)O)C(=O)O` as the molecule, how does the survivor count (dose: 400.0 mg/kg/injection, schedule: Q01DX009 (ip), vehicle: saline sonified) read?
**A.** Its survivor count is 2 of 6.

**Q.** `NC(=O)c1nccnc1Cl` was tested. Which survivor count [1] did it give?
**A.** Its survivor count is 2 of 6.

**Q.** Which results are given for `CC1(C)N=C(N)N=C(N)N1c1ccc(CNC(=O)Nc2cccc(S(=O)(=O)F)c2)cc1`?
**A.** T/C (dose: 25.0 mg/kg/injection, schedule: Q01DX009 (ip), vehicle: saline): 135 % of control; T/C (dose: 50.0 mg/kg/injection, schedule: Q01DX009 (ip), vehicle: saline): 142 % of control; T/C [2]: 133 % of control; survivor count [2]: 6 of 6; T/C (dose: 132.0 mg/kg/injection, schedule: Q04DX003 (ip), vehicle: saline): 130 % of control; T/C [3]: 132 % of control; survivor count [3]: 3 of 5; T/C (dose: 200.0 mg/kg/injection, schedule: Q04DX003 (ip), vehicle: saline): 125 % of control; T/C (dose: 300.0 mg/kg/injection, schedule: Q04DX003 (ip), vehicle: saline): 126 % of control [5 of 6 alive]; survivor count (dose: 400.0 mg/kg/injection, schedule: Q01DX009 (ip), vehicle: saline): 2 of 6 and 6 of 6

**Q.** For `S=C(SC(=S)N(C1CCCCC1)C1CCCCC1)N(C1CCCCC1)C1CCCCC1`, which survivor count [4] is on record?
**A.** Its survivor count is 6 of 6.

**Q.** And the survivor count [1]?
**A.** The survivor count was 6 of 6.

**Q.** Which survivor count (dose: 100.0 mg/kg/injection, schedule: Q04DX003 (ip), vehicle: Klucel (hydroxypropylcellulose) (HPC)) does the source give for `O=C1OC2(Cc3ccccc31)c1ccccc1-c1ccccc12` here?
**A.** Its survivor count is 6 of 6.

**Q.** With `CC(=O)OCCn1c2ccccc2c2c(C)c3cnccc3c(C)c21` as the molecule, how does the T/C (dose: 75.0 mg/kg/injection, schedule: Q04DX003 (ip), vehicle: saline) read?
**A.** Its T/C is 125 % of control.

**Q.** And the survivor count (dose: 450.0 mg/kg/injection, schedule: Q04DX003 (ip), vehicle: saline with Tween-80)?
**A.** Its survivor count is 4 of 6.

**Q.** Which survivor count (dose: 2.5 mg/kg/injection, schedule: Q01DX009 (ip), vehicle: acetone) does the source give for `O=S1(=O)C=C(Cl)C2C3C=CC(C3)C21` (stereo not given) here?
**A.** The survivor count was 6 of 6.

**Q.** What about the survivor count (dose: 10.0 mg/kg/injection, schedule: Q04DX003 (ip), vehicle: acetone) of the same molecule?
**A.** Its survivor count is 5 of 6.

**Q.** What about the survivor count (dose: 20.0 mg/kg/injection, schedule: Q01DX001 (ip), vehicle: acetone) of the same molecule?
**A.** The survivor count was 0 of 6.

**Q.** What about the survivor count (dose: 40.0 mg/kg/injection, schedule: Q01DX001 (ip), vehicle: acetone) of the same molecule?
**A.** The survivor count was 0 of 6.

**Q.** How did the survivor count (dose: 100.0 mg/kg/injection, schedule: Q01DX009 (ip), vehicle: saline with Tween-80) turn out when `CC(C)=CCNC1=NCCN1` was run?
**A.** The survivor count was 1 of 6.

**Q.** What about the survivor count [4] of the same molecule?
**A.** Its survivor count is 0 of 6.

**Q.** And the survivor count [1]?
**A.** The survivor count was 0 of 6.

**Q.** Which results are given for `OC12CCCCC1C[n+]1ccccc1C2` (stereo not given)?
**A.** survivor count (dose: 200.0 mg/kg/injection, schedule: Q01DX001 (ip), vehicle: saline): 2 of 4; survivor count (dose: 400.0 mg/kg/injection, schedule: Q01DX001 (ip), vehicle: saline): 0 of 4

**Q.** What does the source list for `c1ccc(C2=NC(c3ccccc3)NC2c2ccccc2)cc1` (stereo not given)?
**A.** survivor count (dose: 100.0 mg/kg/injection, schedule: Q01DX001 (ip), vehicle: Klucel (hydroxypropylcellulose) (HPC)): 1 of 6 and 3 of 6; survivor count (dose: 200.0 mg/kg/injection, schedule: Q01DX001 (ip), vehicle: Klucel (hydroxypropylcellulose) (HPC)): 2 of 6; survivor count (dose: 400.0 mg/kg/injection, schedule: Q01DX001 (ip), vehicle: Klucel (hydroxypropylcellulose) (HPC)): 2 of 6

**Q.** With `NC(CSC(c1ccccc1)(c1ccccc1)c1ccc(O)cc1)C(=O)O` (stereo not given) as the molecule, how does the survivor count (dose: 300.0 mg/kg/injection, schedule: Q01DX001 (ip), vehicle: other) read?
**A.** The survivor count was 2 of 6.

**Q.** With `Cc1nc(-c2ccc3ccc4cccnc4c3n2)no1` as the molecule, how does the survivor count (dose: 100.0 mg/kg/injection, schedule: Q04DX003 (ip), vehicle: saline with Tween-80) read?
**A.** Its survivor count is 1 of 4.
